Data from PubChem BioAssay AID2551 (National Center for Advancing Translational Sciences (NCATS), 2010).
The whole screen tested about 310,000 compounds, of which about 17,000 (5.5%) were called active. Inconclusive means that the source gave no clear call. Such entries were picked first, then a sample of the others. The call rests on the fitted dose curve; in most records, active means well fitted inhibition curve with a large enough effect; inconclusive means small, poorly fitted or top-dose-only effect, or effect the other way; inactive means no such curve, though single readings can be large or run the other way. Potencies beside an inconclusive call are fits to weak or partial responses and may not hold up.

The chains behind the UniProt entries cited, without tags or fusion partners. Where a name states a change or a piece, a line headed by the entry shows the natural chain unless it says otherwise.
UniProt P51450: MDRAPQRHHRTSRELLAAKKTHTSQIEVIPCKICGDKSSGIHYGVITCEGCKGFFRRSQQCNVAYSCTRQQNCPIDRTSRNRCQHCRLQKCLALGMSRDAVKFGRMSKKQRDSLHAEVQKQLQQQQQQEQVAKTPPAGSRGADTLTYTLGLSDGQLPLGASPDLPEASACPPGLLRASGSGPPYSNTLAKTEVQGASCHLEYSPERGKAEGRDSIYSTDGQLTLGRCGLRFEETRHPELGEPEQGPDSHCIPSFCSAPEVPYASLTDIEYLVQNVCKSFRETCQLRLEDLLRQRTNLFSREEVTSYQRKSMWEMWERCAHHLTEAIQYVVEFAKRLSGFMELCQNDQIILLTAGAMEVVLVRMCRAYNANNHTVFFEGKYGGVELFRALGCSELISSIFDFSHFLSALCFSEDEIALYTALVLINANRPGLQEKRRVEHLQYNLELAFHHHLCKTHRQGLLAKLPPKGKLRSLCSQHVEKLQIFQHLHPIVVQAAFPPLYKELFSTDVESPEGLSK

target: Nuclear receptor ROR-gamma (Mus musculus) (UniProt P51450); assay: qHTS for inhibitors of ROR gamma transcriptional activity; conditions: Drosophila S2 Gal4-RORgamma UAS-luciferase reporter, 20 h; activity change, negative = inhibition: at 53.6 µM (top of the series); further: nearly all actives have a fitted effect of over 60% in size
How it was run: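 Schneider cells (Drosophila), stable Gal4 DBD–ROR gamma + UAS-luc; 1 hr cmpd preincubation; Cu2+ induction 700 uM final; 20 hr ambient; luminescence.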
On the % scale 0 is the no-effect control and ±100 the full control effect; potency means the concentration at half of the fitted maximal effect.

Potency, inconclusive:
Cc1cc(/C=C2\SC(=Nc3ccccc3)NC2=O)c(C)n1-c1ccc(S(N)(=O)=O)cc1 22.4 µM [activator, single point], O=C(c1ccccc1)N1CCC(c2nc3c(nnn3Cc3ccccc3Cl)c(=O)[nH]2)CC1 35.5 µM [inhibitor, single point], CC(=C\c1ccco1)/C=C(\C#N)C(=O)NCCc1c[nH]c2ccccc12 14.1 µM [inhibitor, single point], Cc1c(Br)cc(C(=O)N2CCCC2)c(C)c1C 0.0631 µM [inhibitor, full curve, poor fit], CC1(C)C(=O)Nc2ccccc2N1C(=O)Cn1ncc(Cl)c(Cl)c1=O 35.5 µM [inhibitor, single point], c1ccc(CCc2nn3c(Cn4nnc5ccccc54)nnc3s2)cc1 14.1 µM [activator, partial curve], CN(C)c1ccc(/C=N/NC(=O)c2ccccc2)cc1 12.6 µM [inhibitor, partial curve, poor fit], CCCOc1ccc(N2C(=O)CC(NNC(=O)c3ccc(COc4ccccc4)o3)C2=O)cc1 (stereo not given) 15.8 µM [inhibitor, single point], CCCn1c(CNc2ccccc2O)nc2ccccc21 25.1 µM [inhibitor, single point], O=C1NC(=Nc2ccccc2)/C(=C/c2ccco2)S1 7.08 µM [activator, full curve, poor fit], CCOC(=O)c1ccc(Nc2nc(C)nc3c2nnn3Cc2ccccc2)cc1 25.1 µM [inhibitor, single point], COc1ccc(N2C(=O)N3[C@H](c4ccc(Cl)cc4)[C@@H]4C(=O)N(C5CCCCC5)C(=O)[C@@H]4[C@]3(Cc3ccc(Cl)cc3)C2=O)cc1 5.01 µM [activator, partial curve], NC(=S)N/N=C/c1cn(CCC(=O)O)nc1-c1cccc(Br)c1 10 µM [inhibitor, partial curve], O=S(=O)(c1cccc2c(I)cccc12)N1CCCNCC1 14.1 µM [inhibitor, single point], Cc1ccc(Cl)c(OC(=O)c2ccc(N3CCOCC3)c([N+](=O)[O-])c2)c1 15.8 µM [activator, partial curve], Cn1ccc(=Nc2ccc(NC(=O)c3ccc(N=c4ccn(C)c5ccc([N+](=O)[O-])cc45)cc3)cc2)cc1 2.51 µM [inhibitor, partial curve], O=C(Nc1c2ccccc2nc2ccccc12)C(Cl)(Cl)Cl 31.6 µM [inhibitor, single point], Cc1cc(SCC(=O)c2cccc([N+](=O)[O-])c2)nc(=O)[nH]1 0.501 µM [activator, full curve, poor fit], Cc1ccc(Cl)cc1-n1ncc2c(NNC(=O)c3ccco3)ncnc21 12.6 µM [inhibitor, partial curve], COc1cc(CNc2ccc3[nH]c(=O)[nH]c3c2)ccc1OCc1ccccc1F 3.55 µM [activator, full curve], C[C@H](NC(=O)[C@H]1N2C(=O)c3ccccc3C2SC1(C)C)C(=O)N1CCC[C@H]1CO (stereo not given in full) 12.6 µM [activator, single point], COc1ccc(-c2[nH]c3ccccc3c2SCCNC(=O)c2ccccc2)cc1 15.8 µM [activator, single point], CC1=C(C(=O)Nc2cccnc2)C(c2ccc(C(C)C)cc2)n2ncnc2N1 (stereo not given) 25.1 µM [activator, partial curve, poor fit], COc1ccc(OCc2n[nH]c(=S)n2N)cc1 35.5 µM [inhibitor, single point], CCOC(=O)c1sc(-c2ccc(C(F)(F)F)cc2)nc1O 11.2 µM [activator, partial curve], CCN=C1SC(CC(=O)Nc2ccccc2)C(=O)N1CC (stereo not given) 35.5 µM [inhibitor, single point], O=C(O)CN1C(=O)SC(Nc2ccccc2)C1=O (stereo not given) 5.62 µM [activator, single point], CCCCC#Cc1cncc(C(=O)N/N=C/c2ccccc2)c1 12.6 µM [inhibitor, single point], Cc1onc(-c2c(F)cccc2Cl)c1C(=O)Nc1sc2c(c1C#N)CCC(C(C)(C)C)C2 (stereo not given) 10 µM [activator, partial curve], O=C(NCCSc1ccccn1)c1ccc(Cl)cc1 20 µM [inhibitor, single point], COc1ccccc1N=CC1=C(O)CC(c2ccccc2)CC1=O (stereo not given) 10 µM [activator, partial curve], Cc1c(C(=O)Nc2ccc(N3CCOCC3)cc2)oc2ccccc12 35.5 µM [inhibitor, single point], O=C(CSc1n[nH]c(=O)n1Cc1ccccc1)Nc1ccc(F)c(F)c1F 35.5 µM [activator, single point], Cc1ccc(CCNC(=O)Cn2cccc2)cc1 10 µM [activator, single point], CCCCCCOc1ccc(/C(C)=N/NC2=NCCN2)cc1[N+](=O)[O-] 35.5 µM [inhibitor, single point], CC1CCCCN1C(=O)/C=C/c1ccccc1[N+](=O)[O-] (stereo not given) 7.08 µM [activator, single point], O=C(NNc1ccc([N+](=O)[O-])cc1[N+](=O)[O-])c1ccco1 10 µM [activator, partial curve], CCCOc1ccc(NC(=O)CC2C(=O)N(C)C(=S)N2Cc2cccs2)cc1 (stereo not given) 3.98 µM [activator, single point], COC(=O)/C=C1\SC(=NC(=O)c2ccc(C)cc2)NC1=O 0.005 µM [inhibitor, full curve, poor fit], Cc1ccc(C(=O)Nc2ccccc2C(=O)Nc2ccccn2)cc1Cl 35.5 µM [inhibitor, single point], CCOc1ccc2[nH]c(=O)c(CN(Cc3ccc(F)cc3)C(=O)c3ccco3)cc2c1 11.2 µM [activator, partial curve], CN(C)S(=O)(=O)c1ccc(NC(=O)CNc2cc(S(=O)(=O)N3CCCC3)ccc2OCC(F)(F)F)cc1 20 µM [activator, single point], N#C/C(=C\Nc1ccc2cn[nH]c2c1)c1nc(-c2ccc(Cl)cc2)cs1 1.58 µM [inhibitor, partial curve, poor fit], Cn1c(CC(=O)Nc2ccc(Cl)c(Cl)c2)nnc1SCC(=O)N1CCN(c2ccccc2)CC1 35.5 µM [activator, single point]

Potency, active:
FC(F)(F)c1cnc(NNC(=S)Nc2cccnc2)c(Cl)c1 12.6 µM, O=C(NNC(=O)c1ccccc1O)c1ccc(Br)cc1 11.2 µM, O=C(NC(=S)Nc1cccc(CO)c1)c1ccc(-c2ccccc2)cc1 1.58 µM, CCCC[C@@H]1CNC(=S)N1CC1CCCCC1 1.41 µM, O=C(N/N=C/c1ccccc1O)C1SCCCS1 0.794 µM, CC(=O)NC(C)c1nc2ccccc2n1CC(=O)NC(C)CCc1ccccc1 (stereo not given) 12.6 µM, C/C(Cn1nc([N+](=O)[O-])cc1C)=N\NC(=O)c1cccc(Br)c1 12.6 µM, C=CCn1c(-c2ccc3[nH]c(C)c(C)c3c2)n[nH]c1=S 5.62 µM, CCOC(=O)c1sc(NC(=O)c2cc3c(s2)CCC(C)C3)nc1C (stereo not given) 0.251 µM, N#CC(C(=S)Nc1ccccc1)c1nc2ccccc2[nH]1 (stereo not given) 1.12 µM, Cc1cccc(C)c1NC1=NC(=S)N(c2ccc(N(C)C)cc2)C1(C)C 14.1 µM

Activity change, negative = inhibition, inactive:
O=C(O)/C=C\C(=O)Nc1ccc(OCc2ccccc2)cc1 0.167%, Cc1ccc([N+](=O)[O-])cc1S(=O)(=O)Nc1ccccn1 -1.22%, O=C(CSc1ncnc2ccccc12)Nc1cccc(S(=O)(=O)N2CCCC2)c1 14.5%, Cc1ccc(OCC(=O)N/N=C/C=C/c2ccco2)cc1 -4.16%, COc1ccc(C2NC(=O)NC(c3ccccc3)=C2c2nc3ccccc3s2)cc1 (stereo not given) 1.08%, COc1ccc(C(O)(C2CCCCC2)C(CN2CCOCC2)c2ccccc2)cc1 (stereo not given) 26.7%, CC(=O)c1c(N2CCN(c3ccccc3)CC2)nc(=S)n(-c2ccccc2)c1C 13.7%, CC(=O)Nc1ccc(Oc2cc(N)cc([N+](=O)[O-])c2)cc1 34.8%, CCOC(=O)OCC1OC(c2cc(C)cc(C)c2)C=CC1OC(=O)OCC (stereo not given) 1.15% [at 10 µM], O=C(Nc1cccc(F)c1)N1CC[C@@]2(CCCN(C(=O)c3csnn3)C2)C1 -24%, CCOc1ccc(NC(=O)c2ccccc2OC)cc1 7.09%, O=S(=O)(NCc1ccccc1)c1ccc(-c2cnc(C3CC3)o2)cc1 36.7%, CCOC(=O)N/N=C(\C)c1ccc(C)o1 15.7%, CCOc1cc(CNCc2cccnc2)cc(Br)c1OCC(N)=O -2.77%, Cc1ccc(NC(=O)CCN2CCC(C)CC2)cc1 -8.72%
